# B1: Anti-CD3 (UCHT1) CAR (UCHT1 scFv - CD8α hinge and transmembrane - 4-1BB - CD3ζ) (other)
# Chains of the proteins cited; added tags and fusions are not shown. Residues count along the entry.
# UniProt P07766, 23-207, chain 1 of 3: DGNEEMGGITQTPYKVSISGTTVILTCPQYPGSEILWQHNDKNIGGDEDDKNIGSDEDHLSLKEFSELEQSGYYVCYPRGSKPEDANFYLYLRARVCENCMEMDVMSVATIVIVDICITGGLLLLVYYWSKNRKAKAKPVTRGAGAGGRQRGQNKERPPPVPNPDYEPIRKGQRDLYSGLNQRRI
# CD3 (TCR/CD3 complex) on the surface of human T cells and Jurkat (CD3+) cells, UniProt P09693, 23-182, chain 2 of 3: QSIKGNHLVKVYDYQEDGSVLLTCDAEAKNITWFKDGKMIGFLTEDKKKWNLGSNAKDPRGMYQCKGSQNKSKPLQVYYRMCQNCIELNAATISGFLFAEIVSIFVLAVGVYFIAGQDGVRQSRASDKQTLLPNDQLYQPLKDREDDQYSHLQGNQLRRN
# CD3 (TCR/CD3 complex) on the surface of human T cells and Jurkat (CD3+) cells, UniProt P04234, 22-171, chain 3 of 3: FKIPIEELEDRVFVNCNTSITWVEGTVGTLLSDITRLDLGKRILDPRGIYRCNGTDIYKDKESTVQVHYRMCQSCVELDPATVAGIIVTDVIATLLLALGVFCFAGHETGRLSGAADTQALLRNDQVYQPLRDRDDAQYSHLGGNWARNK
# chain: DIQMTQTTSSLSASLGDRVTISCRASQDIRNYLNWYQQKPDGTVKLLIYYTSRLHSGVPSKFSGSGSGTDYSLTISNLEQEDIATYFCQQGNTLPWTFAGGTKLEIKGGGGSGGGGSGGGGSGGGGSEVQLQQSGPELVKPGASMKISCKASGYSFTGYTMNWVKQSHGKNLEWMGLINPYKGVSTYNQKFKDKATLTVDKSSSTAYMELLSLTSEDSAVYYCARSGYYGDSDWYFDVWGQGTTLTVFSKPTTTPAPRPPTPAPTIASQPLSLRPEACRPAAGGAVHTRGLDFACDIYIWAPLAGTCGVLLLSLVITLYCKRGRKKLLYIFKQPFMRPVQTTQEEDGCSCRFPEEEEGGCELRVKFSRSADAPAYQQGQNQLYNELNLGRREEYDVLDKRRGRDPEMGGKPRRKNPQEGLYNELQKDKMAEAYSEIGMKGERRRGKGHDGLYQGLSTATKDTYDALHMQALPPR
# Target: CD3 (TCR/CD3 complex) on the surface of human T cells and Jurkat (CD3+) cells (human, UniProt P07766 23-207; P09693 23-182; P04234 22-171)
# Test: cell-based or functional assay
binder,measurement,value
B1,"% Cytotoxicity against Jurkat (CD3+) target cells, 24-hour assay, Effector:Target ratio 1:10, donor 1",65%
same,"% Cytotoxicity against Jurkat (CD3+) target cells, 24-hour assay, Effector:Target ratio 1:10, donor 2",72%
same,"% Cytotoxicity against Jurkat (CD3+) target cells, 24-hour assay, Effector:Target ratio 1:10, donor 3",65%
same,"% Cytotoxicity against Jurkat (CD3+) target cells, 24-hour assay, Effector:Target ratio 1:10, donor 4",63%
same,"% Cytotoxicity against Jurkat (CD3+) target cells, 24-hour assay, Effector:Target ratio 1:10, donor 5",65%
same,"% Cytotoxicity against Jurkat (CD3+) target cells, 24-hour assay, Effector:Target ratio 1:10, donor 6",65%
